Results as given in PubChem BioAssay AID310 (DTP/NCI, 2004).
The list shows only some results of the screen, not a fair sample: it gathers tests that were run many times, whatever their T/C, doses with no T/C, and many T/C values between a quarter and a half above the control. Further doses and runs are listed elsewhere. T/C gives the treated animals as a percentage of the vehicle group. Schedule codes are those of the source, taken here to give the interval after Q, in days (D) or hours (H), and the number of doses after X. Some T/C values are followed by the survivors on the day toxicity was checked, most often the fifth; without a count, all were alive then. Some entries give survivors of the animals treated and no T/C: the source holds a T/C of zero for them, seemingly a mark for toxic or unscored doses. Counts of survivors are from the toxicity check (mostly the fifth day) where no day follows; animals may have died later. Some entries were tested several times; the results are listed from low to high.

Tested on: C3AKF1 mice, osteogenic sarcoma HE10734 s.c., tumor weight T/C
Experiment: NCI In Vivo Anticancer Drug Screen. Data for tumor model Osteogenic Sarcoma HE 10734 (subcutaneous) in C3AKF1 (CHKRF1) mice
Settings: T/C endpoint: mean tumor weight, schedule: Q01DX010 (ip), higher T/C = larger tumour; for T/C: evaluated on day 20
Procedure: The antitumor activity of compounds was measured in mice bearing transplantable tumors. Survival or tumor size were measured and the results are expressed as the measurement made in the treated group (T) divided by the measurement made in the vehicle treated control group (C). The tumor model used in this assay is Osteogenic Sarcoma HE 10734 (subcutaneous) in C3AKF1 (CHKRF1) mice

[1] = dose: 125.0 mg/kg/injection, vehicle: saline

For Nc1nc(SCc2ccccc2Cl)c2[nH]cnc2n1, the survivor count (dose: 70.0 mg/kg/injection, vehicle: saline) was 3 of 6, the survivor count (dose: 165.0 mg/kg/injection, vehicle: saline) was 1 of 6 and 4 of 7 and the survivor count (dose: 245.0 mg/kg/injection, vehicle: saline) was 0 of 7. For the same compound, the survivor count (dose: 370.0 mg/kg/injection, vehicle: saline) was 0 of 7.
For S=c1nc[nH]c2c1ncn2C1CCCO1 (centres undefined), the survivor count (dose: 150.0 mg/kg/injection, vehicle: saline) was 0 of 7, the survivor count (dose: 225.0 mg/kg/injection, vehicle: saline) was 0 of 7 and the survivor count (dose: 335.0 mg/kg/injection, vehicle: saline) was 0 of 7.
CCCn1cnc2c(SCc3ccccc3Cl)nc(N)nc21 was tested, and the survivor count (dose: 800.0 mg/kg/injection, vehicle: carboxymethylcellulose (CMC)) was 1 of 6.
O=P(N1CC1)(N1CC1)N1CC1 was tested, and the survivor count (dose: 4.0 mg/kg/injection, vehicle: carboxymethylcellulose (CMC)) was 2 of 7, the survivor count (dose: 6.0 mg/kg/injection, vehicle: carboxymethylcellulose (CMC)) was 1 of 7 and the survivor count (dose: 9.0 mg/kg/injection, vehicle: carboxymethylcellulose (CMC)) was 0 of 7. The survivor count (dose: 13.0 mg/kg/injection, vehicle: carboxymethylcellulose (CMC)) was 0 of 7.
With CCCC(=O)NC1=C(N2CC2)C(=O)C(NC(=O)CCC)=C(N2CC2)C1=O the survivor count (dose: 2.6 mg/kg/injection, vehicle: saline) was 1 of 7, the survivor count (dose: 4.0 mg/kg/injection, vehicle: saline) was 0 of 7 and the survivor count (dose: 6.0 mg/kg/injection, vehicle: saline) was 0 of 7.
For CCC[CH2][Sn]1([CH2]CCC)[O]C(=O)C[S]1, the T/C (dose: 3.12 mg/kg/injection, vehicle: saline) was 133 % of control [5 of 6 alive], the survivor count (dose: 6.25 mg/kg/injection, vehicle: saline) was 0 of 6 and the survivor count (dose: 12.5 mg/kg/injection, vehicle: saline) was 0 of 6. For the same compound, the survivor count (dose: 25.0 mg/kg/injection, vehicle: saline) was 0 of 6.
For CC(=O)Nc1ccc(NC(=O)c2ccc([As](O)O)cc2)cc1, the survivor count (dose: 480.0 mg/kg/injection, vehicle: carboxymethylcellulose (CMC)) was 0 of 7.
In the case of O=C(c1ccc(C(=O)N2CC2)cc1)N1CC1, the survivor count (dose: 25.0 mg/kg/injection, vehicle: carboxymethylcellulose (CMC)) is reported as 2 of 6.
In the case of CC(CCc1cccc2ccccc12)(C(=O)O)C(=O)O, the T/C (dose: 80.0 mg/kg/injection, vehicle: saline) is reported as 147 % of control [5 of 7 alive], the T/C [1] is reported as 137 % of control and the survivor count [1] is reported as 3 of 6. For the same compound, the survivor count (dose: 250.0 mg/kg/injection, vehicle: saline) was 3 of 6, the survivor count (dose: 500.0 mg/kg/injection, vehicle: saline) was 2 of 6 and the survivor count (dose: 1000.0 mg/kg/injection, vehicle: saline) was 0 of 6.
COc1cc([C@@H]2c3cc4c(cc3[C@H](O)[C@H]3COC(=O)[C@@H]23)OCO4)cc(OC)c1OC was tested, and the survivor count (dose: 15.0 mg/kg/injection, vehicle: saline) was 2 of 7, the survivor count (dose: 30.0 mg/kg/injection, vehicle: saline) was 0 of 7 and the survivor count (dose: 60.0 mg/kg/injection, vehicle: saline) was 0 of 7.
For CC1CN1C(=O)c1cc(C(=O)N2CC2C)cc(C(=O)N2CC2C)c1 (centres undefined), the T/C (dose: 15.0 mg/kg/injection, vehicle: carboxymethylcellulose (CMC)) was 137 % of control, the survivor count (dose: 30.0 mg/kg/injection, vehicle: carboxymethylcellulose (CMC)) was 2 of 6 and the survivor count (dose: 60.0 mg/kg/injection, vehicle: carboxymethylcellulose (CMC)) was 0 of 6. The survivor count (dose: 120.0 mg/kg/injection, vehicle: carboxymethylcellulose (CMC)) was 0 of 6.
